Data on 42 sequences can be found in paper PMC7819943, “Rice protein-binding microarrays: a tool to detect cis-acting elements near promoter regions in rice”.

This is one part of the list.

This assay concerns the target T1, OsSMF1 (Oryza sativa, UniProt Q6ZLB0 1-436).
T1 sequence: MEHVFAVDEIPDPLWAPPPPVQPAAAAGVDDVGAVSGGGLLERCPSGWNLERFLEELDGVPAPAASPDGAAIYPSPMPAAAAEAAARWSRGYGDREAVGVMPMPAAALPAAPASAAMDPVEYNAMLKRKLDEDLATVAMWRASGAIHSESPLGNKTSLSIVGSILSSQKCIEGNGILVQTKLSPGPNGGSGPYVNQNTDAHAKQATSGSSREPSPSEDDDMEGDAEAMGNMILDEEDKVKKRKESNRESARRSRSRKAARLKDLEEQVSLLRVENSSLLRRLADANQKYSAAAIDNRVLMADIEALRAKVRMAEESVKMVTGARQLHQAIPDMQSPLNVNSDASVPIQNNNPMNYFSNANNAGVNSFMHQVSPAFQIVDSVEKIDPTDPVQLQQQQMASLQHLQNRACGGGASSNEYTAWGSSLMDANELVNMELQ
Nature of the assay: protein-binding microarray (RPBM); PBS, 2% BSA, 51.3 ng/ul salmon testes DNA, 50 uM zinc acetate, 200 nM TF, 25 C, 1 h; high values mean tight binding. To be noted: protein: recombinant; tags: N-terminal polyhistidine and DsRed monomer fusion (pET32a); chain copies: 2; label: CyDye5-dUTP incorporated in the synthesized complementary strand; 3' TTTTT single-stranded linker to array surface; dsDNA, one strand shown. In short, it runs like this: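 Polyhistidine-tagged DsRed fusions of transcription factors, joined at the N-terminus, were expressed in E. coli BL21-CodonPlus and isolated on Ni–NTA. They were incubated at 200 nM for 1 h at 25 °C on a custom Agilent array, double-stranded and BSA-blocked, in PBS with 2% BSA, salmon testes DNA and 50 µM zinc acetate. The binding signal is per-feature fluorescence intensity (arbitrary units) read on an Axon 4000B scanner after washing.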
In the case of “CACTTAACTATACTAATGCTCCACGTGGATACTTCTATTTCGGAGTCACCTAGTGCAG”, the binding signal was 11100 fluorescence intensity (a.u.).

Regarding “TCACGTAGATGTGTCGATGGTCGTCCCGCGAGCTGACTTGCGGAGTCACCTAGTGCAG”, the binding signal was 3190 fluorescence intensity (a.u.).

In the case of “TTCATCCTATCACATCAAATATTTGGATACATACATGGAGCGGAGTCACCTAGTGCAG”, the binding signal was 45500 fluorescence intensity (a.u.).

“TTGATCATTAAATAAAAGTTACGAAAGTTCAATGATCATGCGGAGTCACCTAGTGCAG”: the binding signal was 3360 fluorescence intensity (a.u.).

On to “GTCGCTGTCTACCACGGAGCCAAACCATCCACGTAGGAGACGGAGTCACCTAGTGCAG”, for which the binding signal was 6980 fluorescence intensity (a.u.).

On to “CTTATCAAGACTCGTGGCGTGGAAAGCTTTACAGGTGAGGCGGAGTCACCTAGTGCAG”, for which the binding signal was 4710 fluorescence intensity (a.u.).

With “TTGTATTCATTTTAATGTAAACTAGTATACGTCATACACACGGAGTCACCTAGTGCAG”, the binding signal was 7480 fluorescence intensity (a.u.).

For “CTTCTACTGCTTTACGTGTCACTGCCTATAATAGTACTACCGGAGTCACCTAGTGCAG”, the binding signal was 5720 fluorescence intensity (a.u.).

Turning to “TGTGTGCGTGTGTTGTGACTTATGATGTGTTTCTTAAGAACGGAGTCACCTAGTGCAG”, the binding signal was 4170 fluorescence intensity (a.u.).

As to “GCTGAGTAGAGCTCGAGCATGACTGTACTGGTGAAGCTTGCGGAGTCACCTAGTGCAG”, the binding signal is 4940 fluorescence intensity (a.u.).

For the sequence “TATGGTAGATTATACTGTAGTTCGATGGGCACGTGTACCACGGAGTCACCTAGTGCAG”, the binding signal was 3900 fluorescence intensity (a.u.).

Consider “CGCCAAAACCTATGTGGCCCATCATCCGCCGGTCCGTGTGCGGAGTCACCTAGTGCAG”, for which the binding signal is 4010 fluorescence intensity (a.u.).

As for “GAGCCGAGACTGAGAGAGAGATCGGCGCCGGCTGTGAACGCGGAGTCACCTAGTGCAG”, the binding signal is 48100 fluorescence intensity (a.u.).

Take “CTCGCTGATGTCATTTCTTGCTTGACCATTTCTGACAGATCGGAGTCACCTAGTGCAG”: the binding signal is 8290 fluorescence intensity (a.u.).

Take “GCCCAAGTAGATTTGGACTCTCGAATCCTAGTCGGATCCACGGAGTCACCTAGTGCAG”: the binding signal is 4720 fluorescence intensity (a.u.).

Take “ATTGATTGACCGAGCGCACTACTCTTTATCTTTTCGATTGCGGAGTCACCTAGTGCAG”: the binding signal is 3410 fluorescence intensity (a.u.).

Take “GAGAGAGTAGCTAGGAGGCTTTAATACACACGTCACACTGCGGAGTCACCTAGTGCAG”: the binding signal was 11900 fluorescence intensity (a.u.).

On to “CTCACCTTGCCCCTTCACACTCGTCACTCGCTCCAACCAGCGGAGTCACCTAGTGCAG”, for which the binding signal was 4640 fluorescence intensity (a.u.).

As for “TCTATGAGATGCGTGTGTATAGTAACTGATGTGGATCAGGCGGAGTCACCTAGTGCAG”, the binding signal is 3980 fluorescence intensity (a.u.).

In the case of “GTCCATCCACTTTGCCCTGCCGACAAAATTCTCAGGTGGTCGGAGTCACCTAGTGCAG”, the binding signal was 16200 fluorescence intensity (a.u.).

With “CAGCTGGTGTTATCTTATCTAAGCCAATATGAGTAATCGCCGGAGTCACCTAGTGCAG”, the binding signal was 3200 fluorescence intensity (a.u.).

For the sequence “TTGGGTAGTTAACTAGAGCGTTAAACAAACCTTGCTGACGCGGAGTCACCTAGTGCAG”, the binding signal was 7600 fluorescence intensity (a.u.).

For the sequence “ACACACGTCGCCGCCACGTGTACGTGTCACGCTCACACCTCGGAGTCACCTAGTGCAG”, the binding signal is 22700 fluorescence intensity (a.u.).

On to “GACCTTTTCGACCTGGGGAGGATGACAAGTCCAGTTCAGTCGGAGTCACCTAGTGCAG”, for which the binding signal is 3250 fluorescence intensity (a.u.).

As for “TTCTGCTGCACACGCGTCCACCCGAGCCGAGAGCCCGAGACGGAGTCACCTAGTGCAG”, the binding signal is 3640 fluorescence intensity (a.u.).

Regarding “AGAAGCGAGGTGACAGCCCAGCCATGGACGGCTAGGACGCCGGAGTCACCTAGTGCAG”, the binding signal was 3240 fluorescence intensity (a.u.).

Regarding “TTAGTATGAAGTAAACACACCCTTATTGTACGTGGTAGAGCGGAGTCACCTAGTGCAG”, the binding signal is 4320 fluorescence intensity (a.u.).

With “CACAAGTTCTCCTACGCTGACTCCTCTCTTGGAACTTCAGCGGAGTCACCTAGTGCAG”, the binding signal was 5030 fluorescence intensity (a.u.).

Consider “AGTGTGGACCGCAATGGCAAGCCACGTTCACATCTCCGACCGGAGTCACCTAGTGCAG”, for which the binding signal is 4600 fluorescence intensity (a.u.).

On to “TTAGGACCATAATATCTAATGTTACATGCCACGTACCAAACGGAGTCACCTAGTGCAG”, for which the binding signal was 7280 fluorescence intensity (a.u.).

For “CTGAAGCATTGTGTGTCATCGTTTTGATTATCATAGCTCACGGAGTCACCTAGTGCAG”, the binding signal is 5320 fluorescence intensity (a.u.).

As to “CCCGTCTCGTTCAGTTTCATATCAACCTCACGTCATGCCCCGGAGTCACCTAGTGCAG”, the binding signal is 4320 fluorescence intensity (a.u.).

“CAAAGCCCACAGAGTCTCACGTCACTGTAACTTCACTCACCGGAGTCACCTAGTGCAG”: the binding signal is 4970 fluorescence intensity (a.u.).

As to “CTAGAACATAATTACTATATGTATGACTCCGACCTGCACACGGAGTCACCTAGTGCAG”, the binding signal was 3370 fluorescence intensity (a.u.).

Turning to “CAATCCCCTAGCCTCGCCACCCGCCACGTGTCGTCCCGCGCGGAGTCACCTAGTGCAG”, the binding signal was 13500 fluorescence intensity (a.u.).

As for “TCTGATTTGTTGGTGATGTGTTGCTGTACTTCTTGTTCTGCGGAGTCACCTAGTGCAG”, the binding signal was 3400 fluorescence intensity (a.u.).

On to “ATGAAATGTTTGTCATTTCTGGTGGGGCTGTTAGTTAATTCGGAGTCACCTAGTGCAG”, for which the binding signal was 4040 fluorescence intensity (a.u.).

In the case of “CAGCACGCCACCGGCGATGTCGGCCACGTTCAAACTTCACCGGAGTCACCTAGTGCAG”, the binding signal is 3590 fluorescence intensity (a.u.).

For “AAAGAAATGTTCCAATACCAGAGTCACCGTGACACCAATGCGGAGTCACCTAGTGCAG”, the binding signal was 3310 fluorescence intensity (a.u.).

As to “CTACGTACTGTTTAACTTATATATGTCATTTCATATGGTTCGGAGTCACCTAGTGCAG”, the binding signal is 3290 fluorescence intensity (a.u.).

Consider “CCGGGTGCACCACGCTGGCGCACCTGGTCTTCTTCCTCCCCGGAGTCACCTAGTGCAG”, for which the binding signal was 4210 fluorescence intensity (a.u.).

In the case of “GCCCAGATATTTCACCACGTCAGCAATCCGCGCCGAAACGCGGAGTCACCTAGTGCAG”, the binding signal is 16600 fluorescence intensity (a.u.).
